No constants are given. Whether binding was seen depends on the method and setting. Binding seen in cells or lysates may run through a third protein. Some entries that bind do so weakly or less than the wild type. Tags and fused reporters may be left off the sequences shown.
T1: human PEX11b tagged with HIS6MYC tags (human) (UniProt O96011)
T1 sequence: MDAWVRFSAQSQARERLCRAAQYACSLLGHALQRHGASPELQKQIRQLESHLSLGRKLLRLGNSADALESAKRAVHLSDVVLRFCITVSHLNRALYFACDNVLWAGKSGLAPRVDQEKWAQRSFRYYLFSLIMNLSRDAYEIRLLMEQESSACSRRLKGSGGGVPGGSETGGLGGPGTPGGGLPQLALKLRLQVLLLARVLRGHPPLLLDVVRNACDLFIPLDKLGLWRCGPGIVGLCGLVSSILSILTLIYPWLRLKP

By UniProt entry, the sequences of proteins in these tests, tags left out.
UniProt O00429: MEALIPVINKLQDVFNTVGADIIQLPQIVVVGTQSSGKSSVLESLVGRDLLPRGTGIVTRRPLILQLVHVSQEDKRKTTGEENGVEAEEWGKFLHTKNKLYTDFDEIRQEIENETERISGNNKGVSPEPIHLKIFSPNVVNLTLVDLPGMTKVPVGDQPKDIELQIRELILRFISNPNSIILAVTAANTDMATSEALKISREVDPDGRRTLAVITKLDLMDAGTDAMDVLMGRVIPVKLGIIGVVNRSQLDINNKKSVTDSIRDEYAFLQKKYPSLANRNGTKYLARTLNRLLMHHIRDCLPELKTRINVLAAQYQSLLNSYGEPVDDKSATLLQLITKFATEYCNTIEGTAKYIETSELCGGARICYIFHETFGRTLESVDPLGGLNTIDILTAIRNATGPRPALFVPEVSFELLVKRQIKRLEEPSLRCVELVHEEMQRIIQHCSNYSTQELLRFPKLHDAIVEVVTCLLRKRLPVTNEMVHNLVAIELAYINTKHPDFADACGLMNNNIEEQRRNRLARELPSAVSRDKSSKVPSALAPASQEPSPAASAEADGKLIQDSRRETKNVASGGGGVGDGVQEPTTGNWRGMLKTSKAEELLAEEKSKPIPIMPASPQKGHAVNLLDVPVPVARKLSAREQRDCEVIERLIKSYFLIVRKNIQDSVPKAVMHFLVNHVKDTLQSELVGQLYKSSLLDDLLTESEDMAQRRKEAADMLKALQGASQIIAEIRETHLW
UniProt O95292: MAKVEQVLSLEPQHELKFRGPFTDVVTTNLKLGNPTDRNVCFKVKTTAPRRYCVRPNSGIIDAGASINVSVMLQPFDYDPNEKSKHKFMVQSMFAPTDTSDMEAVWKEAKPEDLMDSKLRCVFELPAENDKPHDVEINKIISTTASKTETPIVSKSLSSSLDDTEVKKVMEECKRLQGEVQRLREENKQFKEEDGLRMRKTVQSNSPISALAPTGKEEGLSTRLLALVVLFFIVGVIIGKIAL

T2: human ACBD5 tagged with HIS6MYC (human) (UniProt Q5T8D3)
T2 sequence: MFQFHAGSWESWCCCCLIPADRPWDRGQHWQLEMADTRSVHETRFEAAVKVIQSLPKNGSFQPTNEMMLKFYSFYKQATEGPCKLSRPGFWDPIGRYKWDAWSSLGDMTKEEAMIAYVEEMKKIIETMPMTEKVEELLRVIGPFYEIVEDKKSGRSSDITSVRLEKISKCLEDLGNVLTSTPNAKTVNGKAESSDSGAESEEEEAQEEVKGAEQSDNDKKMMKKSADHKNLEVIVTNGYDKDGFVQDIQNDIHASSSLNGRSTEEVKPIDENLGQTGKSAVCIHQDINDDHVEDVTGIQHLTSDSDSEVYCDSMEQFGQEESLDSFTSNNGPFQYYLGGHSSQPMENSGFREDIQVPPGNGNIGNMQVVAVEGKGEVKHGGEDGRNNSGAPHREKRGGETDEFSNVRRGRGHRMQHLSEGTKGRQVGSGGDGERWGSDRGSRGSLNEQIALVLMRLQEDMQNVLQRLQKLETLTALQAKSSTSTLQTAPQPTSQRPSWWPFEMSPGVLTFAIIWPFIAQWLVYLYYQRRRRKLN

B1: mCherry-PEX11G (protein, UniProt Q96HA9 1-241)
chain: MASLSGLASALESYRGRDRLIRVLGYCCQLVGGVLVEQCPARSEVGTRLLVVSTQLSHCRTILRLFDDLAMFVYTKQYGLGAQEEDAFVRCVSVLGNLADQLYYPCEHVAWAADARVLHVDSSRWWTLSTTLWALSLLLGVARSLWMLLKLRQRLRSPTAPFTSPLPRGKRRAMEAQMQSEALSLLSNLADLANAVHWLPRGVLWAGRFPPWLVGLMGTISSILSMYQAARAGGQAEATTP
B2: mCherry-PEX19 (protein, UniProt P40855 1-299)
chain: MAAAEEGCSVGAEADRELEELLESALDDFDKAKPSPAPPSTTTAPDASGPQKRSPGDTAKDALFASQEKFFQELFDSELASQATAEFEKAMKELAEEEPHLVEQFQKLSEAAGRVGSDMTSQQEFTSCLKETLSGLAKNATDLQNSSMSEEELTKAMEGLGMDEGDGEGNILPIMQSIMQNLLSKDVLYPSLKEITEKYPEWLQSHRESLPPEQFEKYQEQHSVMCKICEQFEAETPTDSETTQKARFEMVLDLMQQLQDLGHPPKELAGEMPPGLNFDLDALNLSGPPGASGEQCLIM
B3: mCherry-PEX11A (protein, UniProt O75192 1-247)
chain: MDAFTRFTNQTQGRDRLFRATQYTCMLLRYLLEPKAGKEKVVMKLKKLESSVSTGRKWFRLGNVVHAIQATEQSIHATDLVPRLCLTLANLNRVIYFICDTILWVRSVGLTSGINKEKWRTRAAHHYYYSLLLSLVRDLYEISLQMKRVTCDRAKKEKSASQDPLWFSVAEEETEWLQSFLLLLFRSLKQHPPLLLDTVKNLCDILNPLDQLGIYKSNPGIIGLGGLVSSIAGMITVAYPQMKLKTR
B4: mCherry-MFF (protein, UniProt Q9GZY8 1-342)
chain: MSKGTSSDTSLGRVSRAAFPSPTAAEMAEISRIQYEMEYTEGISQRMRVPEKLKVAPPNADLEQGFQEGVPNASVIMQVPERIVVAGNNEDVSFSRPADLDLIQSTPFKPLALKTPPRVLTLSERPLDFLDLERPPTTPQNEEIRAVGRLKRERSMSENAVRQNGQLVRNDSLWHRSDSAPRNKISRFQAPISAPEYTVTPSPQQARVCPPHMLPEDGANLSSARGILSLIQSSTRRAYQQILDVLDENRRPVLRGGSAAATSNPHHDNVRYGISNIDTTIEGTSDDLTVVDAASLRRQIIKLNRRLQLLEEENKERAKREMVMYSITVAFWLLNSWLWFRR
B5: mCherry-GDAP1 (protein, UniProt Q8TB36 1-358)
chain: MAERQEEQRGSPPLRAEGKADAEVKLILYHWTHSFSSQKVRLVIAEKALKCEEHDVSLPLSEHNEPWFMRLNSTGEVPVLIHGENIICEATQIIDYLEQTFLDERTPRLMPDKESMYYPRVQHYRELLDSLPMDAYTHGCILHPELTVDSMIPAYATTRIRSQIGNTESELKKLAEENPDLQEAYIAKQKRLKSKLLDHDNVKYLKKILDELEKVLDQVETELQRRNEETPEEGQQPWLCGESFTLADVSLAVTLHRLKFLGFARRNWGNGKRPNLETYYERVLKRKTFNKVLGHVNNILISAVLPTAFRVAKKRAPKVLGTTLVVGLLAGVGYFAFMLFRKRLGSMILAFRPRPNYF
B6: human PEX11b tagged with HIS6MYC tags (protein, UniProt O96011 1-259)
chain: T1 sequence

target: T1, human PEX11b tagged with HIS6MYC tags (human); test: co-IP; mycPEX11b and an mCherry-tagged partner overexpressed in WT HEK293T; lysis in 1% CHAPS, 50 mM Tris-HCl pH 7.4, 150 mM NaCl; Myc-Trap agarose overnight at 4°C, four washes; blot; cells in control or Go6983 (5 μM, 24 h) conditions

binding | Molecule
binds | mCherry-DNM1L (from UniProt O00429 1-736)
binds | B1
binds | B2
binds | B3
binds | B4
binds | B5
binds | B6

target: T2, human ACBD5 tagged with HIS6MYC (human); test: co-IP; mycACBD5 and GFP-VAPB overexpressed in HEK293T; lysis in 1% CHAPS in PBS; Myc-Trap agarose overnight at 4°C, four washes; blot; cells in control, Go6983 (5 μM, 24 h) or PKCD-mCherry overexpression conditions

binding | Molecule
binds | GFP-VAPB (from UniProt O95292 1-243)

From PMC12278821
